Measurements published in publication PMC8884901.
No constants are given. Whether binding was seen depends on the method and setting. In cells and extracts the contact can be indirect. Some results given as binding are weak or reduced against the parent protein; the word gives no strength.

Chains of the proteins cited; added tags and fusions are not shown.
UniProt P84022: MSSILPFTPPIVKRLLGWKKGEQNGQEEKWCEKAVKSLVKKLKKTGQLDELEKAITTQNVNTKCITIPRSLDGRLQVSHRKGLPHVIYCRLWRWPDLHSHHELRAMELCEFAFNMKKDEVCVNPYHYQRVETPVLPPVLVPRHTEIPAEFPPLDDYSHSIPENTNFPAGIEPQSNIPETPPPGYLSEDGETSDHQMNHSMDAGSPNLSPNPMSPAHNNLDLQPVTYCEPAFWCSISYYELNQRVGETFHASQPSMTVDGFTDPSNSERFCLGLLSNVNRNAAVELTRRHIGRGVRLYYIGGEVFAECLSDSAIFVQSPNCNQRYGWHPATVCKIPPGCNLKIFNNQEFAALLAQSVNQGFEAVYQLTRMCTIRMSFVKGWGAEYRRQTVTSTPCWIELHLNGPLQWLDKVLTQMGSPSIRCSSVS

Legend:
[1] = molecular target: HA-SMAD3 (WT) (UniProt P84022); experiment: co-IP; HEK293T cells transfected with WT HA-SMAD3 or HA-SMAD3 K53/333R, treated with TGFB1 (5 ng/mL); WCEs, IP with anti-HA antibody, immunoblot
[2] = molecular target: SMAD3 (endogenous) (human (endogenous in MDA-MB-231, MCF-7, HEK293T)) (UniProt P84022); experiment: co-IP; endogenous proteins; WCEs (NP-40 buffer) of MDA-MB-231, MCF-7 or HEK293T cells, IP with anti-SMAD3 antibody on magnetic beads, immunoblot; cells serum starved and treated with TGFB1 (5 ng/mL), silenced for EZH2 or transfected with EZH2 WT, H689A or Y641H in some panels

B1: SMAD anchor for receptor activation (SARA), endogenous (protein, UniProt O95405 1-1425)
chain: MENYFQAEAYNLDKVLDEFEQNEDETVSSTLLDTKWNKILDPPSHRLSFNPTLASVNESAVSNESQPQLKVFSLAHSAPLTTEEEDHCANGQDCNLNPEIATMWIDENAVAEDQLIKRNYSWDDQCSAVEVGEKKCGNLACLPDEKNVLVVAVMHNCDKRTLQNDLQDCNNYNSQSLMDAFSCSLDNENRQTDQFSFSINESTEKDMNSEKQMDPLNRPKTEGRSVNHLCPTSSDSLASVCSPSQLKDDGSIGRDPSMSAITSLTVDSVISSQGTDGCPAVKKQENYIPDEDLTGKISSPRTDLGSPNSFSHMSEGILMKKEPAEESTTEESLRSGLPLLLKPDMPNGSGRNNDCERCSDCLVPNEVRADENEGYEHEETLGTTEFLNMTEHFSESQDMTNWKLTKLNEMNDSQVNEEKEKFLQISQPEDTNGDSGGQCVGLADAGLDLKGTCISESEECDFSTVIDTPAANYLSNGCDSYGMQDPGVSFVPKTLPSKEDSVTEEKEIEESKSECYSNIYEQRGNEATEGSGLLLNSTGDLMKKNYLHNFCSQVPSVLGQSSPKVVASLPSISVPFGGARPKQPSNLKLQIPKPLSDHLQNDFPANSGNNTKNKNDILGKAKLGENSATNVCSPSLGNISNVDTNGEHLESYEAEISTRPCLALAPDSPDNDLRAGQFGISARKPFTTLGEVAPVWVPDSQAPNCMKCEARFTFTKRRHHCRACGKVFCASCCSLKCKLLYMDRKEARVCVICHSVLMNAQAWENMMSASSQSPNPNNPAEYCSTIPPLQQAQASGALSSPPPTVMVPVGVLKHPGAEVAQPREQRRVWFADGILPNGEVADAAKLTMNGTSSAGTLAVSHDPVKPVTTSPLPAETDICLFSGSITQVGSPVGSAMNLIPEDGLPPILISTGVKGDYAVEEKPSQISVMQQLEDGGPDPLVFVLNANLLSMVKIVNYVNRKCWCFTTKGMHAVGQSEIVILLQCLPDEKCLPKDIFNHFVQLYRDALAGNVVSNLGHSFFSQSFLGSKEHGGFLYVTSTYQSLQDLVLPTPPYLFGILIQKWETPWAKVFPIRLMLRLGAEYRLYPCPLFSVRFRKPLFGETGHTIMNLLADFRNYQYTLPVVQGLVVDMEVRKTSIKIPSNRYNEMMKAMNKSNEHVLAGGACFNEKADSHLVCVQNDDGNYQTQAISIHNQPRKVTGASFFVFSGALKSSSGYLAKSSIVEDGVMVQITAENMDSLRQALREMKDFTITCGKADAEEPQEHIHIQWVDDDKNVSKGVVSPIDGKSMETITNVKIFHGSEYKANGKVIRWTEVFFLENDDQHNCLSDPADHSRLTEHVAKAFCLALCPHLKLLKEDGMTKLGLRVTLDSDQVGYQAGSNGQPLPSQYMNDLDSALVPVIHGGACQLSEGPVVMELIFYILENIV
B1 was tested, and the binding [1] was “binds” and the binding [2] was “binds”.
